No constants are given. Whether binding was seen depends on the method and setting. Some entries that bind do so weakly or less than the wild type.
Target: SMRT (UniProt Q9Y618)
Experiment: co-purification of a recombinant complex; complexes transfected, expressed and purified as previously described (refs 23, 43); bait and purification steps not given

The chains behind the UniProt entries cited, without tags or fusion partners.
UniProt Q9Y618: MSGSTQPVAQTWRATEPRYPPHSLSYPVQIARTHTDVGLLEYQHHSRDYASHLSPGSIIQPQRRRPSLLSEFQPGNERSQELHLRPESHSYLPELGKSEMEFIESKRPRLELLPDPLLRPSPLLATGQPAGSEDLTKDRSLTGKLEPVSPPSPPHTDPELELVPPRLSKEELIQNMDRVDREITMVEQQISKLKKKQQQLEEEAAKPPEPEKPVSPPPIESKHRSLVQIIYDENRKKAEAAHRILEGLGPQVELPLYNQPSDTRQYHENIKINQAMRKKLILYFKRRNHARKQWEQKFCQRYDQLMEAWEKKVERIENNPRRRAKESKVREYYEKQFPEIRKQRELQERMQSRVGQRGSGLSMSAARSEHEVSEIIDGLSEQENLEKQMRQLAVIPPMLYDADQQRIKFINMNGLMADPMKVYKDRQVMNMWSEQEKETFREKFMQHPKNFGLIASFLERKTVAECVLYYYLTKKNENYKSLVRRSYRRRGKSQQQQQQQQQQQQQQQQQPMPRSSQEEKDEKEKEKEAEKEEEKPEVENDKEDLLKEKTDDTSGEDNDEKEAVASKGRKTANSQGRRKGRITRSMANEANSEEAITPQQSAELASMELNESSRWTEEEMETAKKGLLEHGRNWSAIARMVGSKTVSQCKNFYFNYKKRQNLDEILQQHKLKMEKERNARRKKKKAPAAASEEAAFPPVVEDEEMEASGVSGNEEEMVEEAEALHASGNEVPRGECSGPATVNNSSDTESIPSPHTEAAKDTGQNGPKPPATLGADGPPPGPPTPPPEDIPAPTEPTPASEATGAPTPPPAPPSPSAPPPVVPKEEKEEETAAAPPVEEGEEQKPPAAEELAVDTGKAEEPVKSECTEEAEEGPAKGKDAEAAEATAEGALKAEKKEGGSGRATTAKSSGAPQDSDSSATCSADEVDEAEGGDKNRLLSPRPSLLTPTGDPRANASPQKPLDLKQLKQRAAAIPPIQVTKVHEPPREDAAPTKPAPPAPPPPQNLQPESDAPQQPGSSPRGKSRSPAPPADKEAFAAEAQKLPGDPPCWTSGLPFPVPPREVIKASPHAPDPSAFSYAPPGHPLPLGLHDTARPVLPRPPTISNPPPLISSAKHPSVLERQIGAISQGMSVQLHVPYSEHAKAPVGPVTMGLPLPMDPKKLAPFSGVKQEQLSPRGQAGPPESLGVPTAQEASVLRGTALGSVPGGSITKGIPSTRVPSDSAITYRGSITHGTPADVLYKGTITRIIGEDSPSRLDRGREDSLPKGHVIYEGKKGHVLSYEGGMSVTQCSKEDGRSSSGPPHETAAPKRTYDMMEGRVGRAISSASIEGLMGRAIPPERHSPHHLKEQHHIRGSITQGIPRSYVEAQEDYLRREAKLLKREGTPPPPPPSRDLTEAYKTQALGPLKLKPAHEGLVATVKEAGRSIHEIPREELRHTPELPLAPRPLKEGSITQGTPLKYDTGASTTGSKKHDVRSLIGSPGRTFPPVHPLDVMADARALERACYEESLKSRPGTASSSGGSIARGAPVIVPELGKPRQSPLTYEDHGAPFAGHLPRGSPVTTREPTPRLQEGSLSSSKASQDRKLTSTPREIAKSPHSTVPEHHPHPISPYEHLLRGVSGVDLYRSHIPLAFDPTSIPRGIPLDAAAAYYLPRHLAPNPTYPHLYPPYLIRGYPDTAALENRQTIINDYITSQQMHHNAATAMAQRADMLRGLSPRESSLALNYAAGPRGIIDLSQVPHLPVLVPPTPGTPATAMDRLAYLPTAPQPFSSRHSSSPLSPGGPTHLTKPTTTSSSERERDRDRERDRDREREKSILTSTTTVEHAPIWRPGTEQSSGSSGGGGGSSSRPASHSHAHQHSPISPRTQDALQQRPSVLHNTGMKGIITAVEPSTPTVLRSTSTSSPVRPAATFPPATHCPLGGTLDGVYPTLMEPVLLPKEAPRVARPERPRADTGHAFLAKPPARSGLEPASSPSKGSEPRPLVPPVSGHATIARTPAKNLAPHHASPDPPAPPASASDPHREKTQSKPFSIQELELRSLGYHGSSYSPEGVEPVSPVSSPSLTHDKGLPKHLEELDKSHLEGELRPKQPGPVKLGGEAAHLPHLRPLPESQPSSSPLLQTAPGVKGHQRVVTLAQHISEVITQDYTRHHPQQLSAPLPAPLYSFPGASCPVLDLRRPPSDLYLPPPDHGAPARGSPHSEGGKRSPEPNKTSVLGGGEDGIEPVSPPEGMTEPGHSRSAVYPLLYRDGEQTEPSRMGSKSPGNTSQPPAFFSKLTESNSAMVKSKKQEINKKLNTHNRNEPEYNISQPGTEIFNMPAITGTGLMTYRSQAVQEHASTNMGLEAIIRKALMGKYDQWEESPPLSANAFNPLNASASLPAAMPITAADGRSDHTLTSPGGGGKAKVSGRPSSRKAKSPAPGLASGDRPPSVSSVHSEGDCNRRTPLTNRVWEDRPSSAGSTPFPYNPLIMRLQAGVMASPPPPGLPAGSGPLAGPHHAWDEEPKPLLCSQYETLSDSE
UniProt Q13227: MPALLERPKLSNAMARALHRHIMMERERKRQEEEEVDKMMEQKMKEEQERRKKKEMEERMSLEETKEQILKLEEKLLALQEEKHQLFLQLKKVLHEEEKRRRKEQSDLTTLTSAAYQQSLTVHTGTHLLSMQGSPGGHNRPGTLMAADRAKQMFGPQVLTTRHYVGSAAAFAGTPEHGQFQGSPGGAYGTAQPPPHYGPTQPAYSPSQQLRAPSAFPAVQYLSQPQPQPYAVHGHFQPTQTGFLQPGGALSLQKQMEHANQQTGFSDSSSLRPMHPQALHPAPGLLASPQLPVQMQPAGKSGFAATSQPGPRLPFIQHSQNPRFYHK

binding: binds
Substance: GPS2 (from UniProt Q13227 1-327)
